From paper PMC4163656
No constants are given. Whether binding was seen depends on the method and setting. Binding seen in cells or lysates may run through a third protein. Some results given as binding are weak or reduced against the parent protein; the word gives no strength. Sequences can lack the tags named with a protein.

B1: UBN2 fused to mCherry or GFP (protein, UniProt F4I700 1-717)
chain: MEDEPKLPTDDGPTFNESCKISSEILTAGDRKLLKVELLKEETTLVSWKKLMDEASKENGGLFVSAPERLLNANPNLEFRLAPGAQTENEMVNQPHPNRLNSVIAKIERLYMGKDGSDGEELDGAPDDDDYDTEDSFIDDAELDEYFEVDNSPIKHDGFFVNRGKLERIEPSATSNQQQPKKRRRKESAKPCGDVVDVSRKRAKMAKTAGGKDQSASPGPSSKKISNDSKTVQDSFSPLKAQNGNDSLVLENVKHTDKANHQPMNATSPKSKAAGSSGPLHPKCSSKSVHEQSNSPPGKSRPNVSAKSAVVRQQVNNGMPDLDIATESKTSIQISKKSGSNGRPKYSTLEKAIRNLEKLVAESRPPAATENQDADISSQAVKRGLPGDVKLHLAKVARIAYASQGEISGELINRLMGIVGHLIQIRSLKRNLKIMIDSIVTANREKDTRFQRIKSEITEMLKTQVPLVESQETNQEAGTSDDFQDVGSLGKSPVKKFVMDVALEEKLCDLYDVFVEGMDEHSGSQIRKLYSDLAQLWPNSLVDNHEIRRAICREKERRRALEGNIGKEMDQTKITKKKQTQLVPKSEGITYPDKTSGVEVKASVVLTATTTSLVDCQPAADSSFERSKQQHEKLKRTSSLSNPAAEGKKVRRKTEPALEETHLPAEKPLVLALKRQTHLKSKTHKQVQVHPQSKAHKQAQVHPKAKTQTPPDLNLPS
B2: ASF1A (tagged, tag not told) (protein, UniProt Q9C9M6 1-196)
chain: MSAIKITNVAVLHNPAPFVSPFQFEISYECLNSLKDDLEWKLIYVGSAEDETYDQLLESVLVGPVNVGNYRFVFQADPPDPSKIQEEDIIGVTVLLLTCSYMGQEFLRVGYYVNNDYEDEQLKEEPPTKVLIDKVQRNILSDKPRVTKFPIDFHPEEEQTAATAAPPEQSDEQQPNVNGEAQVLPDQSVEPKPEES

Biological target: T1, HIRA fused to GFP or mCherry (tag not told for this co-immunoprecipitation) (Arabidopsis) (UniProt Q9LXN4)
T1 sequence: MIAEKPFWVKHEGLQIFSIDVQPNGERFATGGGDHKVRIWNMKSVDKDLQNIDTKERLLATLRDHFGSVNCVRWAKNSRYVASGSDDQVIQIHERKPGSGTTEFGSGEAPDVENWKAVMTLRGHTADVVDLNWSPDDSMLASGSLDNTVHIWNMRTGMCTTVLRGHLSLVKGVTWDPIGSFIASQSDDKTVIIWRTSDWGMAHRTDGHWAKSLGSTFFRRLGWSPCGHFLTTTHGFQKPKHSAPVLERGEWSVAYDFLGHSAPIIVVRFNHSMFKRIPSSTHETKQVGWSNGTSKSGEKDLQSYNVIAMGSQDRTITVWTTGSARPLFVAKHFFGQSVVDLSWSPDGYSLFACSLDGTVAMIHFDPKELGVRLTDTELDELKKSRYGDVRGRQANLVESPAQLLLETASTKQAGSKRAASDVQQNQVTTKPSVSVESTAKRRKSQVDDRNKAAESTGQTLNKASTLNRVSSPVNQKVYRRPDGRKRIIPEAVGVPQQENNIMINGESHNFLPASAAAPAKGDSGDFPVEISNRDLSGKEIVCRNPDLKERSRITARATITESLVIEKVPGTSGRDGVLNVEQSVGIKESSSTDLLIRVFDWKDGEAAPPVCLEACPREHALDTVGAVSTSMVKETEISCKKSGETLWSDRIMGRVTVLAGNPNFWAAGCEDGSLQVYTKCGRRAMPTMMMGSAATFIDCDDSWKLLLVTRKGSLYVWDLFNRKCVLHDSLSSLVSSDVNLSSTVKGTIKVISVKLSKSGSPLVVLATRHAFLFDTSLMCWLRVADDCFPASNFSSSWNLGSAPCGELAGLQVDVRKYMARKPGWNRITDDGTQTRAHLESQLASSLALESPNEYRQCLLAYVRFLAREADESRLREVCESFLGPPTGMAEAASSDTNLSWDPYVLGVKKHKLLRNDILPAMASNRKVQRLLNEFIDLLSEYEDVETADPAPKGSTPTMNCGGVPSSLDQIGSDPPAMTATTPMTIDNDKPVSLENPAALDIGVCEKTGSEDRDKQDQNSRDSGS
Assay: co-IP; nuclei extracted from ten-day-old seedlings or four-week-old rosette leaves of transgenic Arabidopsis; tagged proteins pulled down using tag-specific antibodies (anti-GFP, anti-mCherry) and detected in western blot

Row | Binder | binding
1 | B1 | binds
2 | B2 | binds
